This is an account of results in PubChem BioAssay AID1347423 (Functional Genomics Laboratory (NCATS/FGL), 2020).

In all, about 52,000 sequences went through this assay and about 210 (0.4%) were called active.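 Rule for the calls: active = gene whose silencing raises cell survival under the drug, median off-target-corrected z-score across its silencing RNAs 2 or more; inactive = the rest.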 The list shows a part of the results.

The assay can be described thus: Resistance to Poly (ADP-Ribose) Polymerase inhibitor: Gene Identification via Genome-wide siRNA Screen. The conditions noted are these: mouse BRCA2 R2336H ES cells, olaparib, CellTiter-Glo viability; hits give high values. The method, boiled down: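 Genome-wide siRNA screen (3 siRNAs/gene, 20 nM) in mouse ES cells carrying hypomorphic BRCA2 R2336H; olaparib 500 nM added 48 h post-transfection, CellTiter-Glo viability 72 h later. Normalized to plate-median negative control; MAD z-scores, gene median, seed-adjusted.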
Background: In ATP-based viability assays light output follows the ATP content of the culture.
Consider CCCAUAUUAAUUAUGGCGUTT against Hadha, for which the z-score is inactive: -0.229.

For CGUGGGAUUUAAUGAUCAATT against Nid2, the z-score is inactive: 0.787.

For GCUGAAACGAUUUCUUACUTT against Cbfa2t1h, the z-score was inactive: 1.19.

With GGGCUUGUGUAAAGUGGAUTT against Kin, the z-score is inactive: 0.644.

On to GGACAGUAAGGAUAAAAGCTT against Hsd3b3, for which the z-score is inactive: -0.522.

On to GGCAUACAAAUAUUCUUGCTT against Hist3h2bb, for which the z-score is inactive: 1.48.

Turning to “CCAUUCAUACCAUACCUGUTT against 3200001F09Rik”, the z-score was inactive: 0.446.

For CCUUCCUUACCUACGUGAGTT against Nup88, the z-score was inactive: 0.288.

As to GGAAGAAACUGUAUGAAAGTT against Mycs, the z-score was inactive: -0.384.

In the case of CCCUACAGGAAGUCACUCUTT against Gsdm1, the z-score was inactive: 0.232.

In the case of GCAGUGCACAGAAAUGGAATT against Olfr12, the z-score was inactive: 0.0258.

For the sequence GGAAAGAUGUCAAAGAAAUTT against Gnat2, the z-score is inactive: 2.35.

Turning to CCACUUGUAGACUUGAUUUTT against Jag1, the z-score was inactive: 0.395.

Turning to GGAGAAGGAAUAAGUUUUGTT against Synj2bp, the z-score was inactive: 0.417.

As to GGACAUGUACAGUUUAUUGTT against Cacna1a, the z-score was inactive: 0.798.

GGGUGACCUUUCCAGAUGATT against Cldn13: the z-score was inactive: 0.67.

As to “GGAAAUAAACACUAUGCAUTT against 2310012P17Rik”, the z-score is inactive: 0.992.

Regarding GGAAGGAAGCUAAAAAACGTT against C77032, the z-score was inactive: -0.285.

Consider “CCUCAAUAUGAAUAAAGUGTT against 2900024D24Rik”, for which the z-score is inactive: -1.13.

Turning to “GGCCUCACCUUUUUCUAUUTT against 2410008J05Rik”, the z-score was inactive: 0.682.

As to GCUGUUAACAGCACAACCATT against Slc36a2, the z-score was inactive: 0.296.

For the sequence “GGAGGCACGAAUUGCUGCUTT against Gadd45gip1”, the z-score was inactive: -0.434.

For the sequence GACUAUCUCAUUCUCAGCUTT against Olfr1238, the z-score was inactive: -0.234.

With “GGCACUAGAAGAGAGGUACTT against 4932416K20Rik”, the z-score is inactive: 0.397.

“GGCAGCCUCUGAAAUUGCUTT against 1810012H11Rik”: the z-score was inactive: -1.82.

Take “GGGAAAGAGUUUUACAAACTT against 4732467L16Rik”: the z-score was inactive: 1.69.

Turning to GGAAGAAGGCUGGUACUUATT against Lao1, the z-score is inactive: -0.0477.

As to CCUAUGGCCAUGAUCCUUATT against Olfr575, the z-score is inactive: 0.876.

For “GGUUUAUUCAUUAUUCUCCTT against 8030462N17Rik”, the z-score is inactive: 1.04.

For “GGCUUGCCCUUUAAUAAAATT against 1700011A15Rik”, the z-score is inactive: -1.02.

Turning to GCUAUUUGCUCAAAGCUGUTT against Spnb3, the z-score was inactive: -0.0261.

For GGUUUCCAUGGUAACGUGGTT against Tns, the z-score is inactive: 1.17.

Consider GGUGUGUUAAUUUCUAGAUTT against Frs2, for which the z-score was inactive: 0.204.

GCAACCUGUCCCUUCUUGATT against Olfr225: the z-score is inactive: -0.69.

GCUGGAUUUGACAUUAUCGTT against Olfr151: the z-score is inactive: -0.307.

“GGAGGGCAUCCUCUUCAAATT against 4930449E07Rik”: the z-score is inactive: 0.0932.

As to GGACCGAAACUCAGGCUGATT against Adra1d, the z-score is inactive: -0.273.

For the sequence “GGUUGUCAAGAGCUCAUACTT against 1110002N22Rik”, the z-score was inactive: -0.32.

With GGCCCUCUAUGAGUAUCUGTT against Olfr536, the z-score is inactive: 0.128.

For the sequence GGCCAGUGUAUUUGACCUGTT against Slc22a18, the z-score is inactive: 0.946.

GGGUUUAGACUGAGAAAUATT against Eif3s2: the z-score is inactive: -2.3.

As to CCCUUUUGUGACCUUGUUATT against Scoc, the z-score is inactive: -0.163.

Turning to CCCUGUCAAAAAAGUGGCCTT against Olfr1151, the z-score is inactive: 1.13.

GGAGUGGAAAAAGUGACCATT against Cox4i2: the z-score was inactive: -1.16.

On to CCAAGCCUCCAAUGGUCAGTT against Stat6, for which the z-score was inactive: 0.687.

As for “GGAGACUACCAGGACAAUATT against 0610006I08Rik”, the z-score was inactive: 0.775.

For the sequence GGCAUGGAAACUGUUUUGCTT against Olfr677, the z-score is inactive: -0.186.

For “GGUGUCUGUUUGCCAUCUUTT against 1700056P18Rik”, the z-score is inactive: -0.276.

For the sequence CCUUCCACCAACAAAAGCCTT against Hsh2d, the z-score is inactive: -1.17.

Take GGAUGCUUACCAAAGGAUATT against Mrps18a: the z-score is inactive: -0.129.

As for CCACACAACAAAAAAGUUGTT against Gm1008, the z-score was inactive: -0.235.

On to GGCAAGAUCCUAGCAUCCGTT against Srisnf2l, for which the z-score was inactive: 0.624.

For GUCCGAGUAGGUGAUACAATT against Gm638, the z-score was inactive: -0.441.

For GGUCGACAGAUCAAGCCUUTT against Psmb3, the z-score was inactive: -3.6.

Regarding GGAAUUUCUUCUGAAUGUUTT against Bach2, the z-score was inactive: -2.66.

GGUCAAGAACAAUUCCAAGTT against Itih4: the z-score was inactive: -0.475.

On to GGUAAACAUGUCUAUGACUTT against Fpr-rs7, for which the z-score is inactive: 0.263.

GUUUGGCUCACUGUGCUGGTT against Gja12: the z-score is inactive: 1.88.

Turning to GGUGGCUGUUCUUUUGACGTT against Ptprt, the z-score was inactive: 0.207.

Take GCACUUCACACUUAGGGUGTT against Gm644: the z-score was inactive: 0.52.

For the sequence GGCUCUGUAUCGGAAGGCUTT against Zc3hdc7, the z-score was inactive: 1.3.

In the case of GGAGCUAAACAACUUAAGATT against BC018472, the z-score is inactive: -0.115.

Consider GGAGCCAGUGACAAUAAAUTT against Mata2, for which the z-score was inactive: 0.574.

For the sequence GGAAUUCAGUAGGUGGUCUTT against Rab39b, the z-score is inactive: 0.227.

In the case of “CCAACGAAGCCAAUAAAUGTT against 4930479M11Rik”, the z-score was inactive: -0.488.

For the sequence CCCUCUCCUAUUCUACAUGTT against Arf3, the z-score was inactive: 0.284.

For the sequence “GCGUAGCCCUCAUAAGUCUTT against 2010007H12Rik”, the z-score was inactive: -0.551.

As to CGGACGAUUCGUGUCAAUUTT against Ppie, the z-score is inactive: 0.103.

On to CGAACCGAACACAUAUAAATT against Scnn1a, for which the z-score is inactive: 1.18.

In the case of GGCCCAGCAGACAACUUUATT against Sgca, the z-score was inactive: -0.336.

“CGGUCUGAACUACUGUGUGTT against 6230417E10Rik”: the z-score was inactive: -0.858.

GGGAUCAAAUGUCUUUCCUTT against Wdr19: the z-score is inactive: 0.237.

Consider GGCCCUUCCAGAAGAUACATT against Speer3, for which the z-score is inactive: -0.444.

For the sequence CCAUACCAAUGAAUGCCUCTT against Tnfrsf6, the z-score is inactive: -0.112.

As to GGUUUUUGAGUUUCUGAUUTT against AI315068, the z-score is inactive: 0.851.

As for GGUUAUGGAAGAAAUUGCUTT against Tekt1, the z-score was inactive: 0.742.

As to CGAUCCAACCAGAUGAACATT against Ralgps1, the z-score is inactive: 0.505.

Take CCUUUAAAAGUACCAACCCTT against Eppb9: the z-score is inactive: -0.664.

Take GCACUGUUCUCAAAGUUAATT against Ddx3x: the z-score is inactive: -0.932.

As for “GCGUGAAAUGGAUGAUCAATT against 2310028N02Rik”, the z-score was inactive: -2.19.

As for “GGUAUGACCUCAUUCGGCATT against 6030441H18Rik”, the z-score was inactive: -0.0649.

As for “GGGCAGUGCUUAUUAUGCUTT against 1500005A01Rik”, the z-score was inactive: 0.438.

Take GGCCACAGUAAUGGGAAAUTT against Cga: the z-score is inactive: -1.08.

Regarding GCCACCGAACCUAUAAAGCTT against Scd4, the z-score was inactive: 0.638.

As to GGAUACCCUGGAGUUUAUATT against Tessp2, the z-score is inactive: 0.0368.

Turning to “CCAGAUUCCUCUUGGCCGATT against 6330409N04Rik”, the z-score is inactive: 1.33.

Take CCUAACUUCAGAACUGAAATT against Sh3gl3: the z-score was inactive: 0.442.

For CCACGAGCAUUGAAAACCUTT against Otx3, the z-score is inactive: 0.535.

On to CCUGUGACUCUAUCCAUCATT against Dsg1c, for which the z-score was inactive: -0.844.

For the sequence CGAAAGUGAUCUUUGGAGCTT against Fpr-rs6, the z-score is inactive: -0.551.

On to GGAAGUCGCUUGGAGUUCUTT against Sh2bpsm1, for which the z-score is inactive: 0.192.

“GUGUCUGUUGGAAAGCAGATT against 2310067B10Rik”: the z-score was inactive: -1.57.

As to GGAAGAAAGUGAGCCUUGUTT against Senp6, the z-score is inactive: -0.45.

Consider GGGACAAUAACCUGAUGCUTT against V1rh10, for which the z-score is inactive: -0.664.

Take CCAUACUGUCAUAGCCCAATT against Olfr646: the z-score was inactive: -1.58.

As for “GGAUCAAGUGGCUGAUUUGTT against 2700084L22Rik”, the z-score is inactive: 1.53.

On to CCAUUCCUUUAGAUUCGUUTT against Crsp7, for which the z-score was inactive: -0.547.

On to GGCUACAAGGAGAAGUUUGTT against Traf3, for which the z-score was inactive: 1.64.

As to CGGAAAGGAGCUAAAUGGCTT against Boc, the z-score was inactive: 0.653.

As to CCGUUUAUUUAUCAGCUGGTT against Ssb4, the z-score is inactive: 0.869.

With GGAAGAAAAAGAUGAGAAATT against Hrc, the z-score is inactive: 2.11.

Regarding GCCUUUGUGGACCAUCCAATT against Thy1, the z-score was inactive: 0.438.

As to GGCCUAUUUUAUCCAUAGUTT against Olfr623, the z-score is inactive: 0.481.
